# Test results: PubChem BioAssay AID445 (National Center for Advancing Translational Sciences (NCATS), 2006)
# Some of the results follow. These are further read-outs of the screen, such as a control signal, another cell line or another target. No call is given for them. Most of these compounds were active or inconclusive in the main read-out, so they are no random draw. Words in brackets tell the shape of the fitted curve; partial curves, single points and poor fits give uncertain potencies.
# Test: IkB Signaling
# Settings: ABC-DLBCL IkBa-CBG/CBR dual luciferase ratio (green luciferase fused to IkBa over red control in OCI-Ly3 lymphoma cells), 4 h
# Summary of the method: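 Curves were fitted separately to fusion (green), unfused (red) and ratio luminescence, then classed by r2, magnitude and activity. Cells: OCI-Ly3, 4 h compound plus doxycycline at 37C; 10 uM MG-132 defined full response.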
# [1] = measured here: control luc red channel unless noted
# [2] = measured here: IkB-luc green channel
# [3] = measured here: control luc red channel
smiles,measurement,setting,value
COc1ccccc1N1CCN(c2csc3ccccc3c2=O)CC1,AC50,[1],"15.8 µM [falling, partial curve]"
Cc1cccc(C)c1Nc1c(-c2ccsc2)nc2cccc(C)n12,AC50,[1],"20 µM [falling, single point]"
COc1ccccc1CNC(=O)CCCCn1c(=O)c2ccccc2n(CC(=O)Nc2cccc(Cl)c2)c1=O,AC50,[1],"3.16 µM [falling, full curve]"
CCOc1ccc(/C=C/c2nc(C#N)c(N3CCC(C)CC3)o2)cc1,AC50,[1],"15.8 µM [falling, single point]"
CCc1ccc(Sc2cc(C(=O)NCCCN3CCC(C)CC3)c3ccccc3n2)cc1,AC50,[1],"39.8 µM [falling, single point]"
CCOc1ccc(-c2n[nH]c(C)c2Oc2ccc(OC)cc2)c(O)c1,AC50,[1],"31.6 µM [falling, single point]"
Cc1ccc(-n2ncc3c(N4CCN(c5ccc(F)cc5)CC4)ncnc32)cc1,AC50,[1],"3.16 µM [falling, partial curve]"
O=C(C1CCN(S(=O)(=O)c2cccc3cccnc23)CC1)N1CC=C(c2ccccc2)CC1,AC50,[2],"39.8 µM [falling, single point]"
same,AC50,[3],"3.16 µM [falling, full curve]"
O=C(c1ccc2nc(-c3ccco3)c(-c3ccco3)nc2c1)N1CCN(c2ccccc2)CC1,AC50,[1],"15.8 µM [falling, partial curve]"
COc1cccc(NC(=O)N(Cc2cn(C)c3ccccc23)C2CCCCCC2)c1,AC50,[1],"10 µM [falling, partial curve]"
N#CC1=C(SCC(=O)NC2CCCCC2)NC(=O)CC1c1ccco1 (configuration not stated),AC50,[1],"10 µM [falling, partial curve]"
CCN1CCN(c2cc(C)c3cc(NC(=O)/C=C/c4ccc(C)cc4)ccc3n2)CC1,AC50,[1],"1 µM [falling, partial curve]"
Cc1ccc(C)n1-c1nnc(N2CCCC(C(=O)NCc3cccc(Br)c3)C2)s1 (configuration not stated),AC50,[1],"15.8 µM [falling, single point]"
CCNc1nc(-c2ccc(Cl)cc2)cs1,AC50,[1],"25.1 µM [falling, single point]"
CC1=C(C(=O)NCc2ccc(Cl)cc2)C2(CCC(C)CC2)OC1=O (configuration not stated),AC50,[1],"15.8 µM [falling, single point]"
COc1ccc(OC)c(Nc2nc(-c3sc(C)nc3C)cs2)c1,AC50,[1],"10 µM [falling, partial curve]"
COc1cc(/C=C\C(=O)N2CCCCC2=O)cc(OC)c1OC,AC50,[1],"3.16 µM [falling, partial curve]"
Cc1c(Cl)cccc1-n1nc(C)c2c(C)cc(=O)n(CC(=O)N3CCCc4ccccc43)c21,AC50,[1],"15.8 µM [falling, partial curve]"
Cc1nc(Nc2nc(-c3ccccc3)cc(=O)[nH]2)nc2ccccc12,AC50,[1],"0.0794 µM [falling, full curve]"
CN1CCN(c2nc(Nc3cccc(C(F)(F)F)c3)nc(N3CCOCC3)n2)CC1,AC50,[1],"31.6 µM [falling, single point]"
CCCOc1ccc(CNC(=O)C2CCN(C(=O)c3sccc3-n3cccc3)CC2)cc1,AC50,[1],"39.8 µM [falling, single point]"
CCCNC(=O)C1CCN(c2nc3ccc(C)cc3[nH]2)CC1,AC50,[1],"15.8 µM [rising, partial curve]"
CCOC(=O)c1ccc2c(c1)N(Cc1ccc(F)cc1Cl)C(=O)c1ccccc1S2,AC50,[1],"15.8 µM [falling, partial curve]"
Cc1cnc(=O)[nH]c1SCC(=O)Nc1cc(C(F)(F)F)ccc1Cl,AC50,[1],"39.8 µM [falling, single point]"
O=C(CNS(=O)(=O)c1ccc(Br)s1)N1CCN(c2ccccc2F)CC1,AC50,[1],"39.8 µM [falling, single point]"
Clc1ccccc1Cn1nnc2c(Nc3ccccc3)ncnc21,AC50,[1],"25.1 µM [falling, partial curve]"
Cc1cccc(NC(=O)Cn2c(=O)oc3ccccc32)c1,AC50,[1],"12.6 µM [falling, partial curve]"
O=C(NC1CCCC1)c1cc(-c2cccs2)on1,AC50,[2],"12.6 µM [rising, partial curve]"
same,AC50,[3],"15.8 µM [falling, partial curve]"
CCN1CCN(C(=O)c2ccc3c(c2)N(Cc2cc(C)ccc2C)C(=O)c2ccccc2S3=O)CC1 (configuration not stated),AC50,[1],"39.8 µM [falling, single point]"
COC(=O)c1cc(NC(=O)CN(c2ccccc2)S(=O)(=O)N(C)C)ccc1Cl,AC50,[1],"12.6 µM [falling, partial curve]"
NS(=O)(=O)c1ccc(CCNc2nc3c(-c4cccc(F)c4)nnn3c3ccc(Cl)cc23)cc1,AC50,[2],"25.1 µM [rising, single point]"
same,AC50,[3],"0.1 µM [falling, full curve]"
CCOc1ccccc1NC(=O)Cn1nnc2sc3c(c2c1=O)CCC(C(C)(C)C)C3 (configuration not stated),AC50,[1],"15.8 µM [falling, single point]"
O=C(CCCCn1c(=O)[nH]c2ccsc2c1=O)N1CCN(c2cccc(Cl)c2)CC1,AC50,[1],"12.6 µM [falling, partial curve]"
CCCCN(CCCC)S(=O)(=O)c1ccc2oc(C(=O)NCc3ccccc3)c(C)c2c1,AC50,[1],"10 µM [falling, partial curve, poor fit]"
Cc1cc(C)c(/C=C/c2onc(C)c2S(=O)(=O)N2CCC(C(=O)NCc3ccco3)CC2)c(C)c1,AC50,[1],"10 µM [falling, partial curve]"
CCOC(=O)N1CCN(C(=O)CN(c2ccc(C)cc2C)S(=O)(=O)c2ccccc2)CC1,AC50,[1],"12.6 µM [falling, partial curve]"
Cc1cccc(NC(=O)CSc2nc(C)c(Cc3ccccc3)c(=O)[nH]2)c1,AC50,[1],"25.1 µM [falling, partial curve]"
COc1ccccc1N1CCN(C(=O)c2c3c(nc4ccccc24)C(=O)N(C2CCCCC2)C3)CC1,AC50,[1],"20 µM [falling, single point]"
CCC(C)NC(=O)c1sc2nc(C)c(C(=O)Nc3ccc(Cl)cc3)c(-c3ccc(Br)cc3)c2c1N (configuration not stated),AC50,[1],"7.94 µM [falling, full curve]"

# Reformatted as tab-separated lines: part of the list above.
smiles	measurement	setting	value
CC1=C(C(=O)NCc2ccc(Cl)cc2)C2(CCC(C)CC2)OC1=O (configuration not stated)	AC50	[1]	15.8 µM [falling, single point]
COc1ccccc1N1CCN(C(=O)c2c3c(nc4ccccc24)C(=O)N(C2CCCCC2)C3)CC1	AC50	[1]	20 µM [falling, single point]
